Assay results from publication doi:10.1101/783373 (bioRxiv, 2019).
Results are given in words; binding and its absence hold for the method and conditions named. For some of these results: In cells and extracts the contact can be indirect. Some results given as binding are weak or reduced against the parent protein; the word gives no strength. Where a sequence is shown, tags or fusion partners need not be part of it.

How the values were obtained:
[1] = molecular target: T1, His6-MEIG1 (human meiosis expressed gene 1 protein) (human) (UniProt Q5JSS6); assay: SEC
T1 sequence: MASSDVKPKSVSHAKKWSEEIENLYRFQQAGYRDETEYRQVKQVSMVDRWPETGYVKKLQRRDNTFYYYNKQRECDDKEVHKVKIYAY

[2] = molecular target: T1, His6-MEIG1 (human meiosis expressed gene 1 protein) (human); assay: pull-down

Row | Substance | binding [1] | binding [2]
1 | human PACRG, full-length short isoform (257 a.a.), wild type (from UniProt Q96M98-2 1-257) | binds | binds
2 | PACRG full-length R160Q (rare human variant) (from UniProt Q96M98-2 1-257) | binds | –
3 | PACRG full-length Y76C (rare human variant) (from UniProt Q96M98-2 1-257) | binds | –

Second part, the substance after the results:

Row | binding [1] | binding [2] | Substance
4 | binds | – | PACRG full-length E252K (rare human variant) (from UniProt Q96M98-2 1-257)
5 | binds | – | PACRG full-length E86K (rare human variant) (from UniProt Q96M98-2 1-257)
6 | – | binds | PACRG full-length E86A (from UniProt Q96M98-2 1-257)
